Experimental data as given in paper PMC3638400 (Philosophical Transactions of the Royal Society B: …, 2013).
Numbering of substitutions follows the chain as printed. Names may count otherwise. Results are given in words; binding and its absence hold for the method and conditions named. Some results given as binding are weak or reduced against the parent protein; the word gives no strength.

By UniProt entry, the sequences of proteins in these tests, tags left out.
UniProt P14136: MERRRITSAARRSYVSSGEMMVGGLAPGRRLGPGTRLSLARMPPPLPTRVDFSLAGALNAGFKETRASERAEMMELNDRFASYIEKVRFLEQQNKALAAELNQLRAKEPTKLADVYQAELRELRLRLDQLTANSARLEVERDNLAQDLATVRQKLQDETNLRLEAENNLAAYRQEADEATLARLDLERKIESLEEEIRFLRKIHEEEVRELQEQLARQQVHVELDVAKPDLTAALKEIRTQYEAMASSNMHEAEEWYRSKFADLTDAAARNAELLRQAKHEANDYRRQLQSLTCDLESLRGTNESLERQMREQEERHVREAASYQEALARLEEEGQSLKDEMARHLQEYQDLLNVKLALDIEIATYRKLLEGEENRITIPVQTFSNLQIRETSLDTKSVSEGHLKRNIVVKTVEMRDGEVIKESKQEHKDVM
UniProt P08670: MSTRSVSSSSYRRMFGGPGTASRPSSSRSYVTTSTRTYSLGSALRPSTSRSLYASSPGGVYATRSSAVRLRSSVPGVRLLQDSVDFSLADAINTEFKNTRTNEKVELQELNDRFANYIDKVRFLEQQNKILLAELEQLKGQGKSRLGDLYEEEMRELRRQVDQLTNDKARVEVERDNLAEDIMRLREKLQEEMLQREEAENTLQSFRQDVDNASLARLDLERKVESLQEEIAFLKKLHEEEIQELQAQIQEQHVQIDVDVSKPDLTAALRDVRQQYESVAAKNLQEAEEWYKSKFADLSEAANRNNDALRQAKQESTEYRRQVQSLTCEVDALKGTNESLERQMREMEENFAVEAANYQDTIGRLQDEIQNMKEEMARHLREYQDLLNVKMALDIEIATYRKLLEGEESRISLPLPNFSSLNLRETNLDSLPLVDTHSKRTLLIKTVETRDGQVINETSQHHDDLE

Key:
[1] = target: T1, glial fibrillary acidic protein (GFAP) (human, UniProt P14136 1-432); experiment: co-sedimentation; CRYAB added to preformed GFAP filaments at different pH and temperature; data not shown; both purified
T1 construct: glial fibrillary acidic protein, recombinant human; Assembled into filaments for co-sedimentation and viscometry; immobilised on the chip for SPR; also called WT GFAP; GFAP filaments

[2] = target: T1, glial fibrillary acidic protein (GFAP); experiment: SPR; Biacore 3000; desmin, GFAP and vimentin immobilised on a CM5 chip; CRYAB injected at 20 g ml^-1 (so in the source) for 7 min at 37°C, then washed 7 min; 10 mM HEPES pH 7.4, 0.15 M NaCl, 3.4 mM EDTA, 0.005% P20; double referencing; both purified
vimentin [3] = target: vimentin (UniProt P08670); experiment: as above
vimentin [4] = target: vimentin (UniProt P08670); experiment: co-sedimentation; high-speed; filaments assembled at 0.2 mg ml^-1 with WT CRYAB at 1 : 1 molar ratio; 20 mM HEPES, 100 mM NaCl, 1 mM MgCl2, 1 mM DTT, pH 6.3; 23, 39 or 44°C; both purified
[5] = target: T1, glial fibrillary acidic protein (GFAP); experiment: co-sedimentation; high-speed; filaments assembled at 0.2 mg ml^-1 with WT CRYAB at 1 : 1 molar ratio; 20 mM HEPES, 100 mM NaCl, 1 mM MgCl2, 1 mM DTT, pH 6.8 or 7.3; 23, 39 or 44°C; both purified
vimentin [6] = target: vimentin (UniProt P08670); experiment: as above

Measured: binding

B1: wild-type αB-crystallin (CRYAB, HSPB5) (natural protein, human, UniProt P02511 1-175, looked up)
chain: MDIAIHHPWIRRPFFPFHSPSRLFDQFFGEHLLESDLFPTSTSLSPFYLRPPSFLRAPSWFDTGLSEMRLEKDRFSVNLDVKHFSPEELKVKVLGDVIEVHGKHEERQDEHGFISREFHRKYRIPADVDPLTITSSLSSDGVLTVNGPRKQVSGPERTIPITREEKPAVTAAPKK
notes: αB-crystallin (CRYAB, HSPB5), human; Polydisperse oligomer (apparent size about 520 kDa by SEC); also called WT CRYAB; WT αB-crystallin
binds: all assays above

B2: R120G αB-crystallin (R120G CRYAB) (natural protein, human, UniProt P02511 1-175, looked up)
chain: B1 chain with R120G
notes: αB-crystallin (CRYAB, HSPB5), human, with the disease-causing mutation R120G; Mutation found in a human family with desmin-related myopathy and cataract; Oligomer of apparent size 684 kDa by SEC; also called CRYAB R120G
binds: vimentin [3]
